Record: PubChem BioAssay AID602196 (INSERM, 2012)
Here is one part, drawn at random, of about 23,000 reagents tested. 455 of all reagents (2%) were called active. 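Active includes both protection and sensitisation; some change values fall well beyond the stated -50 to +50 range.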 Unmarked entries are inactive. Not stated in the record: the amount of reagent.

Assay: 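Genes whose knock-down alters cisplatin killing of lung cancer cells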
Cells: human A549 lung cancer cells
Knock-down reagent: siRNA pair against human genes
Time to read-out: 48 h transfection before cisplatin; time from cisplatin to read-out not stated
Challenge: cisplatin at a dose killing half of control-siRNA cells; exact dose and duration not given
Measurement: 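Shift in cisplatin death relative to control siRNA, from -50 (all cells die) to +50 (no cells die); siRNAs harmful on their own scored 0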
Direction: two-siRNA summed score (-2 to +2): higher = both siRNAs protect from cisplatin killing; -2 means both sensitise; mean protection from cisplatin (shift in death) and protection from cisplatin (shift in death), siRNA C and protection from cisplatin (shift in death), siRNA D: higher = protection from cisplatin killing
Call rule: 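Each siRNA scores 0 if harmful alone by LDH or WST-1, otherwise +1 if it reduces and -1 if it increases cisplatin killing; a gene is active when both siRNAs agree (sum +2 or -2)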
Meaning of the calls: active = both siRNAs shift cisplatin killing the same way; inactive = no consistent shift, or siRNA harmful alone

| target | two-siRNA summed score (-2 to +2) | mean protection from cisplatin (shift in death) (%) | protection from cisplatin (shift in death), siRNA C (%) | protection from cisplatin (shift in death), siRNA D (%) |
| --- | --- | --- | --- | --- |
| GTF2H4 | -2 (active) | -27.9 | -42.9 | -13 |
| PLEKHH1 | 0 | -0.4 | 5.4 | -6.2 |
| MGC13275 | 2 (active) | 24.7 | 28.4 | 21.1 |
| MBNL2 | 0 | -0.6 | 3.5 | -4.8 |
| STX6 | 0 | -7 | -8.8 | -5.1 |
| CLC | -1 | -2.1 | 7.1 | -11.4 |
| GPR12 | 0 | 3.6 | -6.1 | 13.4 |
| LOC343717 | 0 | -6.9 | -4.5 | -9.3 |
| FLJ00312 | 1 | 10.3 | 26.1 | -5.5 |
| LOC388743 | 2 (active) | 27.9 | 31.8 | 24 |
| CLIP4 | 0 | 6.5 | 14.3 | -1.3 |
| LOC440317 | 0 | -4.5 | -2.6 | -6.3 |
| PCOLCE | 1 | 19.3 | 8.9 | 29.8 |
| CETN3 | 1 | 6.6 | 11.7 | 1.6 |
| OR1A2 | 0 | -4 | -3.8 | -4.1 |
| TMEM38A | -1 | -5.7 | -13.8 | 2.5 |
| NIF3L1 | 0 | -8 | 2.5 | -18.6 |
| CDH15 | 0 | -1.2 | 5.2 | -7.6 |
| RPL15 | 1 | 11 | 2.4 | 19.6 |
| HNF1B | 0 | -5.5 | -6.9 | -4.2 |
| RTP1 | 0 | 4 | 8.4 | -0.4 |
| PHACTR3 | 0 | 13 | 10 | 15.9 |
| UCMA | 0 | 4.2 | 5.3 | 3 |
| SPATA25 | 1 | 10.4 | 5.8 | 15 |
| KLF14 | 0 | 23.5 | 36.1 | 10.8 |
| LOC442432 | 0 | 8 | 10.4 | 5.6 |
| LOC392169 | 0 | 6.6 | 4.7 | 8.5 |
| LOC440270 | 0 | 10.8 | 26.6 | -4.9 |
| LOC440135 | 0 | 9.8 | 13.3 | 6.2 |
| OR2M7 | 0 | 10.6 | 17.3 | 4 |
| LOC441028 | 1 | 15.2 | 27.9 | 2.6 |
| LOC391051 | 0 | -2.1 | -0.1 | -4.2 |
| DEFB106A | 1 | 0.7 | 15.1 | -13.7 |
| FAM20A | 0 | -1 | -11.7 | 9.8 |
| LOC401115 | 0 | 7.1 | 7.3 | 7 |
| RNPEPL1 | 0 | 10.2 | 10.6 | 9.8 |
| FANCL | 0 | 9.9 | -0.7 | 20.4 |
| DAZAP1 | 0 | 11.5 | 21.3 | 1.8 |
| SERPINB7 | 0 | -5.7 | -7.8 | -3.6 |
| NEK7 | 0 | 2.3 | 7.9 | -3.3 |
| SPTLC3 | 0 | 1 | 2.2 | -0.2 |
| BAZ2B | -1 | -19.4 | -4.9 | -34 |
| POU4F2 | 0 | 10.8 | 6.9 | 14.6 |
| LOC389328 | 1 | 26.5 | 23.1 | 29.9 |
| SLC25A46 | 0 | 4.6 | 9 | 0.3 |
| CYP3A4 | 0 | 1.9 | 7.9 | -4 |
| RGR | 0 | -0.4 | 7.6 | -8.5 |
| LOC401032 | 1 | 8.5 | -2.6 | 19.5 |
| LOC96597 | 0 | 3.7 | 2.7 | 4.8 |
| ARF3 | 1 | 14 | 21.9 | 6.2 |
| OR1Q1 | 0 | 11 | -0.5 | 22.6 |
| LOC399898 (retired record) | 0 | -6.8 | -12.3 | -1.3 |
| LOC126075 | 0 | 1.5 | 13.1 | -10.1 |
| ZNF608 | 0 | -0.9 | 1.4 | -3.1 |
| EAF1 | 1 | 8.1 | 17.2 | -0.9 |
| CXCL3 | -1 | -5 | -16.3 | 6.2 |
| RAPGEF3 | 0 | -0.2 | 3.2 | -3.7 |
